Binding data for two molecules are collected here from paper PMC10739811.

Chains of the proteins cited; added tags and fusions are not shown.
UniProt P97302: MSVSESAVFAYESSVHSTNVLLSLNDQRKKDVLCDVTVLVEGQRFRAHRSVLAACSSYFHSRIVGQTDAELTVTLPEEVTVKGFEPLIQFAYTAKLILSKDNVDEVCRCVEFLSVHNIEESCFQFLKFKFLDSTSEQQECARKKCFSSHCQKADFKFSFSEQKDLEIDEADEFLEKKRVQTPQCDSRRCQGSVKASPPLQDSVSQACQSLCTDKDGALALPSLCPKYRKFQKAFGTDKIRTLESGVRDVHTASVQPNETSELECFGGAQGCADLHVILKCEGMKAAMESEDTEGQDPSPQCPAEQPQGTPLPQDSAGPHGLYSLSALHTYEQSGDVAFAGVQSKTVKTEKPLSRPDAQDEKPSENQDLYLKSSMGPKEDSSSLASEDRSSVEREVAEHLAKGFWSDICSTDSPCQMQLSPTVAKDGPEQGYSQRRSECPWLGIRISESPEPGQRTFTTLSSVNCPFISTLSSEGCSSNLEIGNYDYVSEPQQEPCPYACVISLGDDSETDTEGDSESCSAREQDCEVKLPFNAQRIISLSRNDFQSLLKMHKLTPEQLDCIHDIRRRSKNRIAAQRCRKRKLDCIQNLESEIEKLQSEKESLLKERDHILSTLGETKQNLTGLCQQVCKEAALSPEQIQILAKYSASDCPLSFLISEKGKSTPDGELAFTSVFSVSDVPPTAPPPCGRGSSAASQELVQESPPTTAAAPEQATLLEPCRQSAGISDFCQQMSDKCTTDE
UniProt O14867: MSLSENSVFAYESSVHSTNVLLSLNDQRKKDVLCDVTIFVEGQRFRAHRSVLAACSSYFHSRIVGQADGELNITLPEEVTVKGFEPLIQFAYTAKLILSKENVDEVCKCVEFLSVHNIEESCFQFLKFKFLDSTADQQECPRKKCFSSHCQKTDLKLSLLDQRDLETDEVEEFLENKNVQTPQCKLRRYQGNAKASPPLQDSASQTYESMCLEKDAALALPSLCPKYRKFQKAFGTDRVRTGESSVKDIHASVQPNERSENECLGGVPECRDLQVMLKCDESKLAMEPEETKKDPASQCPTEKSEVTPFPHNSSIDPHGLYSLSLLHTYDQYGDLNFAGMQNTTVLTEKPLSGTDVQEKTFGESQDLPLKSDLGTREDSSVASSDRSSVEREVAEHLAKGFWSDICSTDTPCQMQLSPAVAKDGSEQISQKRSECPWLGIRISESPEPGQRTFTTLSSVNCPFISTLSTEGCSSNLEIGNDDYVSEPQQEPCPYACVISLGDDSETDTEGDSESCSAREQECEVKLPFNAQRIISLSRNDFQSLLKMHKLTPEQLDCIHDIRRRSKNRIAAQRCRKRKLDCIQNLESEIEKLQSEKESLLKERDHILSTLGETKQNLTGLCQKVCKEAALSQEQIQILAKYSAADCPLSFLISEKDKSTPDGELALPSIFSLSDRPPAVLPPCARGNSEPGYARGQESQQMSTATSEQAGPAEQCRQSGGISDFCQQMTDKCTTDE

These are yes or no findings as the source states them, for the method shown. Binding seen in cells or lysates may run through a third protein. Some results given as binding are weak or reduced against the parent protein; the word gives no strength. For part of these data: Sequences can lack the tags named with a protein.

The target in assay [1] is BTB and CNC homology 1 (BACH1), endogenous mouse (mouse (endogenous in primary hepatocytes)) (UniProt P97302). Description: co-IP; lysate of mouse primary hepatocytes precipitated with anti-BACH1 antibody or control mouse IgG; blots for IR-β, PTP1B, PTEN, PP2A and BACH1; endogenous proteins.
Assay [2] has as its target Flag-tagged full-length human BACH1 (human) (UniProt O14867). Description: co-IP; HEK293T cells co-transfected with PTP1B-HA or IR-β-GFP and Flag-tagged BACH1 (full or lacking the BTB domain); precipitated with anti-Flag, blot with anti-HA or anti-GFP.
In assay [3] the target is GST-tagged BACH1 protein (GST-BACH1) (not stated (human or mouse cDNA cloned)) (UniProt O14867). As to the kind of experiment: pull-down; GST-BACH1 on glutathione-Sepharose 4B incubated for 2 h at 4 °C with IR-β-GFP or PTP1B-HA from transfected HEK293T cells (lysate by the legend and results; 'purified' by the methods), three washes, blot; only the target purified.

B1: protein tyrosine phosphatase 1B (PTP1B), endogenous mouse (enzyme, UniProt P35821 1-432)
chain: MEMEKEFEEIDKAGNWAAIYQDIRHEASDFPCKVAKLPKNKNRNRYRDVSPFDHSRIKLHQEDNDYINASLIKMEEAQRSYILTQGPLPNTCGHFWEMVWEQKSRGVVMLNRIMEKGSLKCAQYWPQQEEKEMVFDDTGLKLTLISEDVKSYYTVRQLELENLTTKETREILHFHYTTWPDFGVPESPASFLNFLFKVRESGSLSLEHGPIVVHCSAGIGRSGTFCLADTCLLLMDKRKDPSSVDIKKVLLEMRRFRMGLIQTADQLRFSYLAVIEGAKFIMGDSSVQDQWKELSREDLDLPPEHVPPPPRPPKRTLEPHNGKCKELFSSHQWVSEETCGDEDSLAREEGRAQSSAMHSVSSMSPDTEVRRRMVGGGLQSAQASVPTEEELSSTEEEHKAHWPSHWKPFLVNVCMATLLATGAYLCYRVCFH
For B1, the binding entry in assay [1] is on record as “binds”.

B2: human PTP1B-HA (enzyme, UniProt P18031 1-435)
chain: MEMEKEFEQIDKSGSWAAIYQDIRHEASDFPCRVAKLPKNKNRNRYRDVSPFDHSRIKLHQEDNDYINASLIKMEEAQRSYILTQGPLPNTCGHFWEMVWEQKSRGVVMLNRVMEKGSLKCAQYWPQKEEKEMIFEDTNLKLTLISEDIKSYYTVRQLELENLTTQETREILHFHYTTWPDFGVPESPASFLNFLFKVRESGSLSPEHGPVVVHCSAGIGRSGTFCLADTCLLLMDKRKDPSSVDIKKVLLEMRKFRMGLIQTADQLRFSYLAVIEGAKFIMGDSSVQDQWKELSHEDLEPPPEHIPPPPRPPKRILEPHNGKCREFFPNHQWVKEETQEDKDCPIKEEKGSPLNAAPYGIESMSQDTEVRSRVVGGSLRGAQAASPAKGEPSLPEKDEDHALSYWKPFLVNMCVATVLTAGAYLCYRFLFNSNT
Regarding B2, the binding result in assay [2] and in assay [3] was “binds” throughout.
